Paper PMC4909299
Results are given in words; binding and its absence hold for the method and conditions named. For part of these data: Binding calls can cover weak binding; strength is not graded here.

Key:
Assay in all cases: two-hybrid; Dbl2 fused to the GAL4 activation domain (prey), Rad51, Fbh1 or Fml1 fused to the GAL4 DNA-binding domain (bait); S. cerevisiae PJ69-4a; growth on SD plates lacking histidine or adenine
Fml1 (S. pombe) = target: T1, Fml1 (S. pombe) (UniProt Q9UT23)
T1 sequence: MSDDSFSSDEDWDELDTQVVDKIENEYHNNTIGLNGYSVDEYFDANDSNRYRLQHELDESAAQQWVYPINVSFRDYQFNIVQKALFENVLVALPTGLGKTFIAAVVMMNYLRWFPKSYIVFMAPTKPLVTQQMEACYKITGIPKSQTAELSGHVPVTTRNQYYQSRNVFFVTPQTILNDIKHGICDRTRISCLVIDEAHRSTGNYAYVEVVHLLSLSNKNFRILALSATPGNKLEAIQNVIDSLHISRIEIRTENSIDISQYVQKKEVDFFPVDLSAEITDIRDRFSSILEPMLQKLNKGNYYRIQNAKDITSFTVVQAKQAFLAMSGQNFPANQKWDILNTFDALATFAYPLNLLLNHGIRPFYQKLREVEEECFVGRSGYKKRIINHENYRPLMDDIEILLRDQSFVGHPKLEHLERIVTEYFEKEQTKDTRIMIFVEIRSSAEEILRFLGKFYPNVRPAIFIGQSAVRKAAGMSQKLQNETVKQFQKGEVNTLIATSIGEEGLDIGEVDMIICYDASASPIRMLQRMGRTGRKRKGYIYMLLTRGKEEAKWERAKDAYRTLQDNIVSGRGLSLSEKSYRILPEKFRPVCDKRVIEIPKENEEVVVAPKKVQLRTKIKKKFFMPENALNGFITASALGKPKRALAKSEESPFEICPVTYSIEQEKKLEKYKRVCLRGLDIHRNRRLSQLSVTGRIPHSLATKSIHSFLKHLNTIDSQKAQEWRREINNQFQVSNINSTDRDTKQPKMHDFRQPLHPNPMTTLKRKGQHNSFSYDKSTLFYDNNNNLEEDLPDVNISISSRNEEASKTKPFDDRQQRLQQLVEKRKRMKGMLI

Fbh1 (S. pombe) = target: T2, Fbh1 (S. pombe) (UniProt Q9USU3)
T2 sequence: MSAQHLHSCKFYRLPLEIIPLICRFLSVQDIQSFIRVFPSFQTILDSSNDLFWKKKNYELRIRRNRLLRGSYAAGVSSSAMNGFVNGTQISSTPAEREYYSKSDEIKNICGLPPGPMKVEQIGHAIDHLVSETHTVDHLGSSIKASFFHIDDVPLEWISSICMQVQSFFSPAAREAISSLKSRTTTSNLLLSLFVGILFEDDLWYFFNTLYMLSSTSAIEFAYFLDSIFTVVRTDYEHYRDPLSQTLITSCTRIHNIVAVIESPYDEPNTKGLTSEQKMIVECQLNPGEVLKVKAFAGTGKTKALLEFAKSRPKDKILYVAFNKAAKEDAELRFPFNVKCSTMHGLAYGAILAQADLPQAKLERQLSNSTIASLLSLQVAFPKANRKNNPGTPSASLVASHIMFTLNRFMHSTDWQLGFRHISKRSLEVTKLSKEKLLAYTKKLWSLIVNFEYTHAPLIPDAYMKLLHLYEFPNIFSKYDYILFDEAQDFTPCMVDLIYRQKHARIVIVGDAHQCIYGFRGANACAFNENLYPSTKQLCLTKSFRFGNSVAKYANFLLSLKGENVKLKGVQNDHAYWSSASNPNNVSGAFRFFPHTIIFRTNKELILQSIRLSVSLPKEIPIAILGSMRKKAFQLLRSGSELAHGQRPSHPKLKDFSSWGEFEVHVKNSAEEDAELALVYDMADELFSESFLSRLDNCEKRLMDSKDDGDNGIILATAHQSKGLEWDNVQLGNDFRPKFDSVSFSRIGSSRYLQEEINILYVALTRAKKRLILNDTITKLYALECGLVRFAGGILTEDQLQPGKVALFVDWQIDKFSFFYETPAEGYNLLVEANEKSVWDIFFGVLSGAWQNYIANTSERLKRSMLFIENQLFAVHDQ

Rad51 (S. pombe) = target: T3, Rad51 (S. pombe) (UniProt P36601)
T3 sequence: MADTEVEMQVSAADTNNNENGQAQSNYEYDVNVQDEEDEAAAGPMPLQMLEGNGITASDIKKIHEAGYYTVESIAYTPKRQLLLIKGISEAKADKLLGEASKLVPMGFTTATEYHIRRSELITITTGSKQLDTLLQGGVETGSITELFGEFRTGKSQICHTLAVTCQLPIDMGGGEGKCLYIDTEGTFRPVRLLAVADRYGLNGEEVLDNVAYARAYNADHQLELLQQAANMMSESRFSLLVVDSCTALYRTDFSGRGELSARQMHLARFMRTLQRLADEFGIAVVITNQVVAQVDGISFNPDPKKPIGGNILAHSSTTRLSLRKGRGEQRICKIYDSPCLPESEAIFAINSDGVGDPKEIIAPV

binding (Fml1 (S. pombe)): binds weakly
binding (Fbh1 (S. pombe)): no binding
binding (Rad51 (S. pombe)): binds
Substance: Dbl2 (S. pombe)
